Experimental data as given in PubChem BioAssay AID485314 (National Center for Advancing Translational Sciences (NCATS), 2010).
The campaign covered roughly 340,000 compounds. About 4,500 (1.3%) were called active. Inconclusive results, whose numbers are uncertain, are shown with a selection of clear calls. Calls come from the whole dose curve; as a rule, active = well fitted inhibition curve with a large enough effect; inconclusive = small, poorly fitted or top-dose-only effect, or another doubt; inactive = no such curve, though single readings can be large or run the other way. Where the call is inconclusive, the potency comes from a doubtful curve fit.

Biological target: DNA polymerase beta (Homo sapiens) (UniProt P06746)
Assay: qHTS Assay for Inhibitors of DNA Polymerase Beta
Details: Pol beta primer extension/strand displacement, fluorescence kinetic; activity change, negative = inhibition: at 114 µM (top of the series)
Procedure, shortened: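 Pol beta (10 nM) was preincubated with compound for 15 min at room temperature. The reaction was then started with 50 nM substrate and read immediately and after a further 10 min at room temperature.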
% is set by controls: 0 for no effect and ±100 for the full control effect; potency is the fitted concentration of half-maximal effect.

Compound	Potency	activity change, negative = inhibition
C#CCOc1nc(OCC#C)nc(OCC#C)n1	inconclusive: 70.8 µM [inhibitor, partial curve]	
CCC(C)NC(=O)c1ccccc1NS(=O)(=O)c1ccc(OC)c(OC)c1 (stereo not given)	inconclusive: 1.41 µM [inhibitor, full curve, poor fit]	
O=C(COC(=O)c1ccccc1Nc1cccc(C(F)(F)F)c1)NCc1ccco1	active: 39.8 µM	
COc1ccc(C2=Nn3c([n+](C)c4ccccc43)SC2)cc1	inconclusive: 0.562 µM [inhibitor, full curve, poor fit]	
O=C1OCC2OC(O)C(O)C(O)C2OC(=O)c2cc(O)c(O)c(O)c2-c2c(O)c(O)c3oc(=O)c4c(c(O)c(O)c5oc(=O)c2c3c54)-c2c1cc(O)c(O)c2O (stereo not given)	active: 0.158 µM	
Cc1cc2c(cc1S(=O)(=O)N1CCN(c3ccccc3)CC1)OCCN2C	inconclusive: 89.1 µM [inhibitor, single point]	
S=C1NCN(C2CCCCC2)CN1CCc1ccccc1	inactive	
CN(C)C(=O)/N=N/C(=O)N(C)C	inactive	
CC(=O)c1cccc(NS(=O)(=O)c2cccc(S(=O)(=O)c3ccc(Br)cc3)c2)c1		inconclusive: -30.8% [inhibitor]
Cc1cc(C)n2nc(C(=O)N/N=C/c3c4ccccc4cc4ccccc34)nc2n1	inconclusive: 20 µM [inhibitor, full curve]	
O=C(N/N=C/c1ccccc1O)c1cc(=O)[nH]c2ccccc12	inactive	
COc1cc(/C=N/NC(=O)CCc2ccccc2)ccc1O	inactive	
COc1ccc(C2CC(c3ccccc3)=NN2c2ccc(C(N)=O)cc2)cc1 (stereo not given)	inconclusive: 3.98 µM [inhibitor, full curve, poor fit]	
Cc1c(Cl)cccc1NC(=O)c1cc2nc(-c3ccc4c(c3)OCO4)cc(C(F)(F)F)n2n1	inactive	
CC(=O)c1c(C)oc2ccc(NS(=O)(=O)c3ccc(O)c(C(=O)O)c3)cc12	inconclusive: 50.1 µM [inhibitor, partial curve]	
O=C(O)c1cccc(N2C(=O)c3ccc4c5c(ccc(c35)C2=O)C(=O)N(c2cccc(C(=O)O)c2)C4=O)c1		inconclusive: -30.7% [inhibitor]
O=C(N/N=C\c1cccnc1)c1cc(-c2ccc(Cl)s2)[nH]n1	active: 14.1 µM	
C=Cc1ccc(Cn2c(SCC(=O)N3CCN(c4ccc(F)cc4)CC3)nc3ccccc32)cc1	inactive	
COC(=O)c1cccc(CN2C(=O)SC(Nc3ccc(C)cc3)C2=O)c1 (stereo not given)	inconclusive: 28.2 µM [inhibitor, single point]	
COC(=O)c1ccc(NC(=O)CCc2c(C)nn(-c3ccc(N4CCCCC4)nn3)c2C)cc1	inactive	
CCc1nnc(NC(=O)c2sc3nc4c(cc3c2N)CCCCC4)s1	inconclusive: 89.1 µM [inhibitor, single point]	
O=C(Nc1ccc(O)cc1)c1ccc(C(=O)c2ccccc2)o1	inconclusive: 44.7 µM [inhibitor, partial curve, poor fit]	

Retrieved by structure from the entries so far:
Compound	Potency	activity change, negative = inhibition
COc1ccc(C2CC(c3ccccc3)=NN2c2ccc(C(N)=O)cc2)cc1 (stereo not given)	inconclusive: 3.98 µM [inhibitor, full curve, poor fit]	
O=C(N/N=C\c1cccnc1)c1cc(-c2ccc(Cl)s2)[nH]n1	active: 14.1 µM	

(list continues)

Compound	Potency	activity change, negative = inhibition
Cc1ccc(S(=O)(=O)c2cn(CC(=O)Nc3ccc(Cl)cc3)c3ccc(F)cc3c2=O)cc1C	inconclusive: 79.4 µM [inhibitor, single point]	
O=C(NCCCN1CCCCC1)c1ccc2c(c1)NC(=O)C(N1CCCCC1)S2 (stereo not given)	inconclusive: 39.8 µM [inhibitor, partial curve, poor fit]	
N#Cc1c(NC(=O)c2ccc([N+](=O)[O-])o2)sc2c1CCC2	active: 20 µM	
Cc1ccc(CSc2nc3cccnc3n2Cc2ccc(C(=O)NC3CCCCC3)cc2)cc1	inconclusive: 39.8 µM [inhibitor, partial curve]	
CC1=C(C(=O)OC(C)C)C(c2ccc(Cl)cc2)n2c(s/c(=C\c3ccc(OCC(=O)O)cc3)c2=O)=N1 (stereo not given)	active: 3.55 µM	
CCOC(=O)C1=C(C)NC(C)=C(C(=O)OCC)C1c1ccc(Br)o1	inconclusive: 35.5 µM [inhibitor, single point]	
CCc1nnc(NC(=O)CN2CCC(O)(c3ccccc3OC)CC2)s1	inconclusive: 0.708 µM [inhibitor, partial curve, poor fit]	
Cc1cccc(Cl)c1NNC(=O)Nc1c([N+](=O)[O-])c(C)nn1C	inactive	
CC(=O)Nc1nonc1-c1nnc(SCC(=O)Nc2ccc(C)c(Cl)c2)n1C	inconclusive: 89.1 µM [inhibitor, single point]	
Cc1ccc(N=C2NC(=O)/C(=C\c3ccco3)S2)cc1	inconclusive: 4.47 µM [inhibitor, single point]	
Cc1c(OCC(=O)N[C@H](C(=O)O)c2ccccc2)ccc2c3c(c(=O)oc12)CCCC3	inconclusive: 2 µM [inhibitor, partial curve]	
O=C(O)C1C2C=CC(C2)C1C(=O)NCCc1cccc(Cl)c1 (stereo not given)	inconclusive: 0.794 µM [inhibitor, full curve, poor fit]	
CC(C)c1nn2c(N)c(/C=C3\C=Nc4ccccc43)c(=O)nc2s1	inconclusive: 44.7 µM [inhibitor, partial curve, poor fit]	
CNC(=O)/C(=C\C=C\c1ccccc1)NC(=O)c1ccc([N+](=O)[O-])cc1	inconclusive: 100 µM [inhibitor, single point]	
CCC1(COC(NC(=O)c2cccnc2)(C(F)(F)F)C(F)(F)F)COC1	inconclusive: 89.1 µM [inhibitor, single point]	
Cc1nn(-c2ccccc2)c(Cl)c1C(=O)NCc1cccs1	active: 12.6 µM	
CCCCOc1cccc(C(=O)NC(=S)Nc2ccc(Cl)c(C(=O)O)c2)c1	inactive	
Cc1cc(-c2ccccc2)nc2c(Br)c(=O)[nH]n12	inconclusive: 0.141 µM [inhibitor, full curve, poor fit]	
COc1ccc2oc(C(=O)OCC(=O)NC3CCCC3)c(C)c2c1	inconclusive: 70.8 µM [inhibitor, partial curve]	
Cc1ccc(S(=O)(=O)NC(Cc2ccccc2)C(=O)O)cc1C (stereo not given)	inconclusive: 0.891 µM [inhibitor, full curve, poor fit]	
COc1ccc(C(=O)Nc2nnc(CC(=O)N/N=C/c3ccc(O)cc3O)s2)cc1	active: 5.01 µM	
C=C(C)C(=O)Nc1cccc(C2=NOC3(C2)C[C@@H](C(N)=O)N(C(=O)c2cc([N+](=O)[O-])cc([N+](=O)[O-])c2C)C3)c1 (stereo not given in full)	active: 20 µM	

Reprinted from the results shown (3 entries):
Compound	Potency	activity change, negative = inhibition
Cc1ccc(S(=O)(=O)c2cn(CC(=O)Nc3ccc(Cl)cc3)c3ccc(F)cc3c2=O)cc1C	inconclusive: 79.4 µM [inhibitor, single point]	
O=C(NCCCN1CCCCC1)c1ccc2c(c1)NC(=O)C(N1CCCCC1)S2 (stereo not given)	inconclusive: 39.8 µM [inhibitor, partial curve, poor fit]	
N#Cc1c(NC(=O)c2ccc([N+](=O)[O-])o2)sc2c1CCC2	active: 20 µM	

Next part.

Compound	Potency	activity change, negative = inhibition
COC(=O)c1cc(COc2ccc3oc(C)c(C(=O)OC(C)C)c3c2)c(C)o1	inconclusive: 100 µM [inhibitor, single point]	
Cc1ccccc1-n1c2nc(=O)n(C)c(=O)c-2cc2ccccc21	inactive	
CCCCC1=CC2=CC(=O)C(C)(OC(=O)CC)C(=O)C2=CN1CCc1c[nH]c2ccccc12 (stereo not given)	inactive	
CCCSc1cc(N2CCOCC2)nc(-c2ccccc2Cl)n1	active: 79.4 µM	
CC1=C(C(=O)OC(C)C)C2(O)C(=O)c3ccccc3C2(O)N1 (stereo not given)	inactive	
C#CCOCCOCCOCCNc1nc(N2CCN(C(=O)[C@H](CCC(=O)O)n3cc(C(N)Cc4ccc(O)cc4)nn3)CC2)nc(N2CCN(C(=O)[C@H](CCC(=O)O)n3cc(C(N)[C@H](C)CC)nn3)CC2)n1 (stereo not given in full)	inconclusive: 3.55 µM [inhibitor, single point]	
COCCNC(=O)CCC1CCN(Cc2ccc(-c3ccccc3)cc2)CC1	inconclusive: 0.141 µM [inhibitor, full curve, poor fit]	
Cc1ccc(-n2cc(CN(C)Cc3nccn3C)c(-c3cccc(C)c3)n2)cc1	inconclusive: 44.7 µM [inhibitor, single point]	
O=C(COC(=O)c1ccc([N+](=O)[O-])s1)NC(c1ccccc1)c1ccccc1	inconclusive: 20 µM [inhibitor, full curve]	
Cc1ccccc1-n1c(SCC(=O)Nc2cccc3ccccc23)nc(O)cc1=O	inconclusive: 0.158 µM [inhibitor, full curve, poor fit]	
CC(C)CCNC(=O)Cn1c(=O)oc2cc(S(=O)(=O)N3CC(C)CC(C)C3)ccc21 (stereo not given)	inconclusive: 25.1 µM [inhibitor, single point]	
CC(=O)NC1CC2CCCC(C1)N2CC(=O)N1CCCc2ccccc21 (stereo not given)	inconclusive: 89.1 µM [inhibitor, single point]	
CCOC(=O)c1c(N)n(-c2ccc(N)cc2)c2nc3ccccc3nc12	inconclusive: 39.8 µM [inhibitor, partial curve, poor fit]	
C/C=C/C=C\C(=O)Nc1cccc(C2=NOC3(C2)C[C@H](C(N)=O)N(C(=O)/C=C/C)C3)c1 (stereo not given in full)	inconclusive: 56.2 µM [inhibitor, partial curve]	
N/C(=N\OC(=O)c1ccccc1Cl)c1ccncc1	inconclusive: 11.2 µM [inhibitor, full curve]	
CN(Cc1ccccc1)c1ccc2cc(S(=O)(=O)N3CCCCC3)ccc2n1	inactive	
CCCC(=O)Nc1nnc(SCC(=O)NCc2ccco2)s1	inconclusive: 35.5 µM [inhibitor, single point]	
O=C1NC(=O)/C(=C\c2ccc(OCc3ccccc3)cc2)S1	inconclusive: 79.4 µM [inhibitor, partial curve]	
CC(C)C[C@H](NC(=O)c1nc[nH]c1C(=O)NC(c1ccccc1)c1ccccc1)C(=O)OC(C)(C)C	inconclusive: 35.5 µM [inhibitor, full curve]	
CCOc1cc(-c2cc(-c3ccc(C)o3)nc(N)c2C#N)ccc1O	inactive	
COc1ccccc1C(=O)n1nc(-c2ccc(Cl)cc2)nc1N	inconclusive: 89.1 µM [inhibitor, single point]	
